Results taken from publication PMC6179184, “Interaction of the Warsaw breakage syndrome DNA helicase DDX11 with the replication fork-protection factor Timeless promotes sister chromatid cohesion” (PLoS Genetics, 2018).
Numbering of substitutions follows the chain as printed. No constants are given. Whether binding was seen depends on the method and setting. In cells and extracts the contact can be indirect. Binding can be weak; no strength is given. For part of these data: Sequences can lack the tags named with a protein.

Key:
[1] = biological target: T1, DDX11-3xFlag K50R mutant (human) (UniProt Q96FC9); assay: co-IP; whole cell extracts of HEK 293T cells transiently expressing DDX11-3xFlag (wild type or mutants), anti-Flag M2 agarose beads, 50 mM Tris-HCl pH 8.0, 150 mM NaCl, 0.25% Triton X-100, 10% glycerol, 2 hr at 4 C, elution with Flag peptide; Western blot of endogenous partners
T1 sequence: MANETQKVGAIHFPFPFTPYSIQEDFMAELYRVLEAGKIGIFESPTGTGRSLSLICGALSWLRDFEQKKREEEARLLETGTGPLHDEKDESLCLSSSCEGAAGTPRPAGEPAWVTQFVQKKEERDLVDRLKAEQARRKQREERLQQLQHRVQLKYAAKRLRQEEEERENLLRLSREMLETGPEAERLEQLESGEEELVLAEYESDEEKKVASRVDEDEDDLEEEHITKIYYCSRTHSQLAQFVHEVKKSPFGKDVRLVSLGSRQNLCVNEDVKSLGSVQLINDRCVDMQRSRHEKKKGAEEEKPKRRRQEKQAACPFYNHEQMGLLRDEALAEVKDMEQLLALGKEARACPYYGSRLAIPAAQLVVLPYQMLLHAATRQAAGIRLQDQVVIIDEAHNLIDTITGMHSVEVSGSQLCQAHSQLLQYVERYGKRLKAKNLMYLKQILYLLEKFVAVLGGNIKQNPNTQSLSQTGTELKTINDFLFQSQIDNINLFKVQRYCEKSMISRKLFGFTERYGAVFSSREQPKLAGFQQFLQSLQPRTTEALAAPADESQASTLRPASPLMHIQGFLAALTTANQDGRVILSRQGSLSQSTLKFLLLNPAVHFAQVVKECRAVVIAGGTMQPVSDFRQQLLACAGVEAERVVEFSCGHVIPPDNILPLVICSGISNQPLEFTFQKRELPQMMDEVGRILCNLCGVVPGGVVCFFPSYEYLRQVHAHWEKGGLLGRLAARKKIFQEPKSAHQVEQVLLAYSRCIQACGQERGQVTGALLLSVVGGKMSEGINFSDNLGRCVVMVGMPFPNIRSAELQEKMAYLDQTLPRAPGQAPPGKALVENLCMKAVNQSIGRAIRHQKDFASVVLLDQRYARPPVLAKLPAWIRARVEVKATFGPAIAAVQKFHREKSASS

[2] = biological target: T2, DDX11-3xFlag KAE mutant (human) (UniProt Q96FC9); assay: as above
T2 sequence: T1 sequence with R50K, E201K, Y202A

[3] = biological target: T3, DDX11-3xFlag KAK mutant (human) (UniProt Q96FC9); assay: as above
T3 sequence: T1 sequence with R50K, E201K, Y202A, E203K

[4] = biological target: T4, DDX11-3xFlag Q23A mutant (human) (UniProt Q96FC9); assay: as above
T4 sequence: T1 sequence with Q23A, R50K

[5] = biological target: T5, DDX11-3xFlag wild type (human) (UniProt Q96FC9); assay: as above
T5 sequence: T1 sequence with R50K

[6] = biological target: T6, endogenous Cdc45 (HeLa nuclear fraction) (human (endogenous in HeLa)) (UniProt O75419); assay: co-IP; nuclear fraction (sonicated, micrococcal nuclease treated) of S phase control (C1) and DDX11-depleted (5-5) HeLa cells; anti-Cdc45 rabbit IgG or control IgG on Protein A Sepharose; 10 mM Hepes-NaOH pH 7.9, 50 mM NaCl, 1 mM DTT, 0.1% Triton X-100, 4 C; Western blot
T6 sequence: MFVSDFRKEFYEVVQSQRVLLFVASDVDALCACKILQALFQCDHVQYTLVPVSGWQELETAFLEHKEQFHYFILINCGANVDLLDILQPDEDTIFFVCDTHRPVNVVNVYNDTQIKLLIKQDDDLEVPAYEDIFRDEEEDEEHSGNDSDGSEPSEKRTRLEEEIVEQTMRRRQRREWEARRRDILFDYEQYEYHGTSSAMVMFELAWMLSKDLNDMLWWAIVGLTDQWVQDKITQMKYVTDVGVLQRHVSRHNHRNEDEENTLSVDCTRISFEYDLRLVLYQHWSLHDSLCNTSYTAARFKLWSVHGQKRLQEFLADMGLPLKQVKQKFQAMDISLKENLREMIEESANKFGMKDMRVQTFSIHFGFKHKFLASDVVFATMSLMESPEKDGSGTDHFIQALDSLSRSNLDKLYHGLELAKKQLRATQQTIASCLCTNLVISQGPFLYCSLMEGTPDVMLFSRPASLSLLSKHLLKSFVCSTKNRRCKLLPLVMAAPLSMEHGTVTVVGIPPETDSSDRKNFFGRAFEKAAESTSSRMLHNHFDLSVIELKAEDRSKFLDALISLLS

Measured: binding

endogenous cohesin (HEK 293T) (human (endogenous in HEK 293T)) (complex)
binds: [1] | [2] | [3] | [4] | [5]

endogenous cohesin (HeLa nuclear fraction) (human (endogenous in HeLa)) (complex)
binds: [6]
